# Earlier results, collected in patent publication US11826369B2, “Targeting the TLK1/NEK1 axis in prostate cancer” (Board of Supervisors of Louisiana State University and …, priority 2019, dated 2023).
# Target: recombinant human dopamine receptors (D1 and D3)
# Conditions: competitive studies with recombinant receptors; cited from earlier work
smiles,measurement,value
"CSc1ccc2c(c1)N(CCC1CCCCN1C)c1ccccc1S2 (stereo not shown) [THD, Thioridazine]",IC50,20 nM
